Consider one sequence from article PMC9120067.

The exact form of at least one protein or probe is not confirmed. At least one verdict was read from the data and is not stated in words by the source. Tags and fusion partners may be left off the protein sequences shown.

In this series the target is T1, His6-ExpR (Sinorhizobium meliloti) (UniProt Q2HY11).
T1 sequence (looked up, limits assumed): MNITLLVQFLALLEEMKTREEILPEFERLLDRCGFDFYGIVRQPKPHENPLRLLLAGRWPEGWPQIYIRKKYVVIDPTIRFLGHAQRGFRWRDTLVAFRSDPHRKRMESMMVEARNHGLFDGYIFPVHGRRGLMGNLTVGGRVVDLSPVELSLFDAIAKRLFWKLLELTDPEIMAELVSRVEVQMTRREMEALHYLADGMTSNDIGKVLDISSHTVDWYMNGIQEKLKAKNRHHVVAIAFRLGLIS
The experiment in a line: EMSA. The note with it: 1 uM His-ExpR, 10 uM 3-oxo-C16:1-HSL, shift implied by supershift with SinR, 20 mM HEPES-Na pH 7.5, 200 mM NaCl, 50 mM KCl, 20 mM MgCl2, 1 ug/ul BSA, 0.0025 U/ul sonicated sperm DNA, 0.1% DMSO, 2.75 nM DNA, recombinant protein, protein details: His6, label: Cy3 at 5' end of forward primer 264f, probe letters rebuilt from the primers and the genome.

As for “CGTGATTACGCGATGTAGCGATGCTGTCAGGCTCGGATGACACATGTAACTGTCTATAGTGACAGTTTATTTCCTCATTTTTTCCCAATAGATTTGTGGGGGAATCTGCGGGTGGCCGGTCCTGTCCCGGGCCGGCAACCCGTCAGATGGTGGGGATCAGAGCATGTCGAACAGCGT (double strand) [sinI promoter 177 bp fragment]”, the binding result is “binds”.
